Results taken from patent publication US8816050 (dated 2014).

What was measured:
[1] = solid-phase peptide synthesis; conditions: for step yield: coupling step; for isolated mass / isolated yield: whole synthesis
[2] = Fmoc solid-phase peptide synthesis; H2N-Phe-2-ClTrt-resin; PyBOP/NMM; conditions: whole synthesis, scale of the general procedure 100 μmol
[3] = Fmoc solid-phase peptide synthesis; Rink amide resin; PyBOP/NMM; conditions: whole synthesis, scale of the general procedure 100 μmol
[4] = scale of the general procedure 100 μmol

Substance: dexSAL Gly-Gly
- step yield [1]: 70%

Substance: Glycopeptide Val^53-Phe^82
- isolated yield [2]: 18% yield

Substance: Ac-Leu-Tyr-Arg-Ala-Gly-S(CH2)2CONH2
- isolated mass ([1]; scale 100 μmol): 50.6 mg
- isolated yield ([1]; scale 100 μmol): 72%

Substance: qexSAL Gly-Gly
- step yield [1]: 38%*

Substance: Thioester Peptide Cys(Acm)^37-Gly^52
- isolated yield [1, 4]: 43% yield

Substance: Ac-Leu-Tyr-Arg-Ala-Ala-S(CH2)2CONH2
- isolated mass ([1]; scale 100 μmol): 39 mg
- isolated yield ([1]; scale 100 μmol): 54%

Substance: Ac-Leu-Tyr-Arg-Ala-His-S(CH2)2CONH2
- isolated mass ([1]; scale 100 μmol): 31 mg
- isolated yield [1, 4]: 39%

Substance: Glycopeptide Thioester Asp^1-Asn^36
- isolated yield [3]: 9% yield

Substance: exSAL Gly-Gly
- step yield [1]: 86%

Substance: pexSAL Gly-Gly
- step yield [1]: 49%

Substance: texSAL Gly-Gly
- step yield [1]: 60%

Marks after values point to notes of the source that are not given here.
